{"source": "patent US20230129674", "about": "(published 2023)", "test": "general procedure: solution-phase peptide synthesis; T3P/NMI/DIPEA; HATU/DIPEA or HATU/2,6-lutidine", "conditions": "coupling step"}
{"substance": "Val-Dil-Dap-Phe-OMe", "values": [{"measurement": "step yield", "result": 80, "unit": "%"}]}
